# Measurements as given in publication PMC7819943, “Rice protein-binding microarrays: a tool to detect cis-acting elements near promoter regions in rice”.
# Amino acid sequences for entries named in this document (tags omitted).
# UniProt Q0JBA9, entry or part of it: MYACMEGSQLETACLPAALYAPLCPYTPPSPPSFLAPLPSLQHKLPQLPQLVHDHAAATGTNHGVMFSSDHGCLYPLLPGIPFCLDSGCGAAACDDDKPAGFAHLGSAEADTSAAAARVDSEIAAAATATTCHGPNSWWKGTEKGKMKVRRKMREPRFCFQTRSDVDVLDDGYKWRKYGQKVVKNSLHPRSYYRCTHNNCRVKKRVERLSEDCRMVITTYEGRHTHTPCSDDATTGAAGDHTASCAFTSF
# Some of the results follow.
# Target: OsWRKY34 (Oryza sativa, UniProt Q0JBA9 1-250)
# Assay: protein-binding microarray (RPBM); PBS, 2% BSA, 51.3 ng/ul salmon testes DNA, 50 uM zinc acetate, 200 nM TF, 25 C, 1 h; high values mean tight binding
# Details: protein: recombinant; tags: N-terminal polyhistidine and DsRed monomer fusion (pET32a); label: CyDye5-dUTP incorporated in the synthesized complementary strand; 3' TTTTT single-stranded linker to array surface; dsDNA, one strand shown
# Summary of the method: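 Polyhistidine-tagged DsRed fusions of transcription factors, joined at the N-terminus, were expressed in E. coli BL21-CodonPlus and isolated on Ni–NTA. They were incubated at 200 nM for 1 h at 25 °C on a custom Agilent array, double-stranded and BSA-blocked, in PBS with 2% BSA, salmon testes DNA and 50 µM zinc acetate. The binding signal is per-feature fluorescence intensity (arbitrary units) read on an Axon 4000B scanner after washing.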
row,Sequence,binding signal
1,GTTTGACTTTGACCTGAAACGGAGGGAGTAGTATATTGGGCGGAGTCACCTAGTGCAG,8830 fluorescence intensity (a.u.)
2,CACACGCTCGCATCGCGGCTGCCTTTGGACCTCGGACTCGCGGAGTCACCTAGTGCAG,8180 fluorescence intensity (a.u.)
3,TCTCAACCAAAAAAAAAAACTTCCTTTATTCCTTTTTTTTCGGAGTCACCTAGTGCAG,8050 fluorescence intensity (a.u.)
4,AGTTCCGCCTCGGTTGGCACCCAAAGTAGGTCCTTAGTATCGGAGTCACCTAGTGCAG,9700 fluorescence intensity (a.u.)
5,GTATATTTTAACATTGATTACCTCGTACACCTCATCTGTCCGGAGTCACCTAGTGCAG,9710 fluorescence intensity (a.u.)
6,TCTTTTTGCAGCTGACATGTGGGGCCACACTTTTTTTTATCGGAGTCACCTAGTGCAG,8190 fluorescence intensity (a.u.)
7,CCGCAACGACCACAAATCACCATCTGCTTTCTAGTTTCTTCGGAGTCACCTAGTGCAG,8330 fluorescence intensity (a.u.)
8,CGGTTTTGACGGACGTGGTGCCCACGTGGCTAGTTTGACTCGGAGTCACCTAGTGCAG,8980 fluorescence intensity (a.u.)
9,CCCGGGCATCTCGCCACACCGTTACACACCGTTGCATTCCCGGAGTCACCTAGTGCAG,9620 fluorescence intensity (a.u.)
10,GCTATGTTGTGATTTGTGGACTGACCAAGATTGGACTTCTCGGAGTCACCTAGTGCAG,8220 fluorescence intensity (a.u.)
11,ACATGCAACCACACAACTCAGCTACAATACCATCAAGATGCGGAGTCACCTAGTGCAG,8210 fluorescence intensity (a.u.)
12,GCACATATGTGGCATTCTGTTCATCTCCTGGCATTTGTGTCGGAGTCACCTAGTGCAG,8230 fluorescence intensity (a.u.)
13,CATTTAAAGATTAGAGACGATGGTGGTGTTGACCAAGATTCGGAGTCACCTAGTGCAG,8430 fluorescence intensity (a.u.)
14,CCCTTTGCCTTGGATTTTCCACTTGCACTTGCACTTCCTCCGGAGTCACCTAGTGCAG,12200 fluorescence intensity (a.u.)
15,GCATCCATTCTCGATTGCTTTCTTTCAGCCATGTTGATGCCGGAGTCACCTAGTGCAG,8440 fluorescence intensity (a.u.)
16,ACCTTTCCAATACTTTTCAATATCCGTTTCTGCCACGCCACGGAGTCACCTAGTGCAG,8830 fluorescence intensity (a.u.)
17,AGTACTCTGTCCTTGTCATGCACGATTCACTTACTTCCCACGGAGTCACCTAGTGCAG,10300 fluorescence intensity (a.u.)
18,ACGGAGAGACCACACTTAACACTTGCATTAGACCACAAGTCGGAGTCACCTAGTGCAG,8210 fluorescence intensity (a.u.)
19,TTCATATGTATTTCATGCGTTTTGCAATCCTCTGTTTAACCGGAGTCACCTAGTGCAG,9270 fluorescence intensity (a.u.)
20,CACCGCGCACCGATCAACCTTGGCCTGACCAACCTCCCCACGGAGTCACCTAGTGCAG,9210 fluorescence intensity (a.u.)
21,GCCTGAAGAGGAATCGGCCTACGTCTGACGCATACATTCTCGGAGTCACCTAGTGCAG,10400 fluorescence intensity (a.u.)

# Five records drawn at random from the list so far:
row,Sequence,binding signal
6,TCTTTTTGCAGCTGACATGTGGGGCCACACTTTTTTTTATCGGAGTCACCTAGTGCAG,8190 fluorescence intensity (a.u.)
5,GTATATTTTAACATTGATTACCTCGTACACCTCATCTGTCCGGAGTCACCTAGTGCAG,9710 fluorescence intensity (a.u.)
17,AGTACTCTGTCCTTGTCATGCACGATTCACTTACTTCCCACGGAGTCACCTAGTGCAG,10300 fluorescence intensity (a.u.)
16,ACCTTTCCAATACTTTTCAATATCCGTTTCTGCCACGCCACGGAGTCACCTAGTGCAG,8830 fluorescence intensity (a.u.)
4,AGTTCCGCCTCGGTTGGCACCCAAAGTAGGTCCTTAGTATCGGAGTCACCTAGTGCAG,9700 fluorescence intensity (a.u.)

# Further records

row,Sequence,binding signal
1,ACTGAAATTATGGTATTGATCGTTTTTTTTTCAAAATTTTCGGAGTCACCTAGTGCAG,9000 fluorescence intensity (a.u.)
2,CTACCAACCTGTTCATCATGGCCCGACTCCATTCATGTCACGGAGTCACCTAGTGCAG,10300 fluorescence intensity (a.u.)
3,ATGTTATGCTACTTATTCATGTTTCAATCCATATTCAAATCGGAGTCACCTAGTGCAG,11000 fluorescence intensity (a.u.)
4,GGACACGTGGCAGTGTGGGTGGTGGGGTCCTAGGGGCGTCCGGAGTCACCTAGTGCAG,15900 fluorescence intensity (a.u.)
5,TTTATTTTCTTTCTCTCTCTCTCGGCCTTAATCGCATATACGGAGTCACCTAGTGCAG,12600 fluorescence intensity (a.u.)
6,TCTGTCTCAACTCCCATTTTTCACCTTGGGACAGAGGGCACGGAGTCACCTAGTGCAG,11000 fluorescence intensity (a.u.)
7,GGGCATATTTCTCTATTTTTCTATTCCTATGGTTTGAAATCGGAGTCACCTAGTGCAG,9080 fluorescence intensity (a.u.)
8,AAGTTCTTAAGTCTCAACTACTCCTAGAGTCCTATTATTCCGGAGTCACCTAGTGCAG,8130 fluorescence intensity (a.u.)
9,TTTGTTTTGTTATTAGTCTATGTTTAATACTAGTATATTTCGGAGTCACCTAGTGCAG,8990 fluorescence intensity (a.u.)
10,TCATCACAGTCTTTTTTTTTCTCTTCATCCTTAATCCCTCCGGAGTCACCTAGTGCAG,8030 fluorescence intensity (a.u.)
11,ACACTACTCTTCTCTCTCTTTTTTATCTTTTTAAAATATACGGAGTCACCTAGTGCAG,8670 fluorescence intensity (a.u.)
12,TTGTACGGGTACTATTCACTGTCTGATATTATTATTTTTGCGGAGTCACCTAGTGCAG,8460 fluorescence intensity (a.u.)
13,GGGATGGAGGTAGTATTTGTTAGTGGCTTATCATACATTTCGGAGTCACCTAGTGCAG,10800 fluorescence intensity (a.u.)
14,AACAAATATCGTTCCTCGGTGTCGTCATCGTGTTTGGATCCGGAGTCACCTAGTGCAG,8260 fluorescence intensity (a.u.)
15,AATCACCACCTCGCCTCGCGTCACCACCTCTCGCCGCCGCCGGAGTCACCTAGTGCAG,9010 fluorescence intensity (a.u.)
16,TGCTTGGTTGCCACATCTTTCTATGCATTCACAATTCCAGCGGAGTCACCTAGTGCAG,9950 fluorescence intensity (a.u.)
17,ATCTCTATGTTTTCTTATCCATATTATTTAAATTTTATTTCGGAGTCACCTAGTGCAG,11800 fluorescence intensity (a.u.)
18,CACCATGTGCTACATTTGTCTTTTCTTTCAAGTTATTTATCGGAGTCACCTAGTGCAG,9050 fluorescence intensity (a.u.)
19,GGCCTAACTGTCCTATGCGCTAGTCGCCTCCGACCAAACGCGGAGTCACCTAGTGCAG,9270 fluorescence intensity (a.u.)
20,TGCCCACCACGCGTCTCTCCCAAAATTCGCGGCCTCCTATCGGAGTCACCTAGTGCAG,8730 fluorescence intensity (a.u.)
21,GTACACGTTACCCGCGTGGGTGTGGGTATGGGGATGATTTCGGAGTCACCTAGTGCAG,11700 fluorescence intensity (a.u.)

row,Sequence,binding signal
1,TGAACGTTTTTTTTGGGGTTATTGATGATTGAAATTTGCTCGGAGTCACCTAGTGCAG,9790 fluorescence intensity (a.u.)
2,GTTGAGGGATTACTAACTGGATGGGGTATTTCAGTAGGAACGGAGTCACCTAGTGCAG,9450 fluorescence intensity (a.u.)
3,CTGATTTTGCAGTAGCATCTTTAGGTTGTTTTTTTCCTGACGGAGTCACCTAGTGCAG,11200 fluorescence intensity (a.u.)
4,ACCACACTCCACTCCACTCCACTACTGCGCTTAGCTAATTCGGAGTCACCTAGTGCAG,10800 fluorescence intensity (a.u.)
5,GCCCAGGGAATATTCTCTTCTTCTTCTTCTATTCCACGTCCGGAGTCACCTAGTGCAG,8180 fluorescence intensity (a.u.)
6,AGAGGCTGCTGTAAATCCTTCATTTTATTAAATTTATACTCGGAGTCACCTAGTGCAG,8710 fluorescence intensity (a.u.)
7,AATTCATTGTGTTACTCGTTTGTTCTGTTGGCTTTTTTACCGGAGTCACCTAGTGCAG,11200 fluorescence intensity (a.u.)
8,GCCTCTCCGCCCACCGCCGCCCATCGCCGCTCTGCCTGCACGGAGTCACCTAGTGCAG,10500 fluorescence intensity (a.u.)
9,GGGTCCGGTTTTCCTTATAAACTGGGTCAATTCTTTTTTCCGGAGTCACCTAGTGCAG,11500 fluorescence intensity (a.u.)
10,AGAGACTTTTAAAAACCTTTTTCGATTTAAATTATTCATGCGGAGTCACCTAGTGCAG,8520 fluorescence intensity (a.u.)
11,ATACTCCCTCCGTTTCAAAATGTTTGACATCGTTGACTTTCGGAGTCACCTAGTGCAG,9980 fluorescence intensity (a.u.)
12,CCCATAGCACATTCCTAGTTCTGTTATCCCGACCCGTTACCGGAGTCACCTAGTGCAG,10300 fluorescence intensity (a.u.)
13,TGCCTAGCTATTCTACTAGCTTTGTTTCTCTCTTGGCGACCGGAGTCACCTAGTGCAG,9020 fluorescence intensity (a.u.)
14,GCCCGATCCGTGATTTGTACACGTACTAATTTTTTCTTACCGGAGTCACCTAGTGCAG,8750 fluorescence intensity (a.u.)
15,ATGATGTACGTGTTCAGATTTATAGTTAGGATTATTTTTTCGGAGTCACCTAGTGCAG,9720 fluorescence intensity (a.u.)
16,GTTCTCTAGCCGCTTGTGATACTCGCAATCCTAAACCACGCGGAGTCACCTAGTGCAG,8410 fluorescence intensity (a.u.)
17,CGCTGTGGTTGGGTTCGCATGATTAATTGTTGCATTTAAACGGAGTCACCTAGTGCAG,13400 fluorescence intensity (a.u.)
18,AGTTGACCGCCGCCGCCGTTCCCATCCTGACCCCAACCAACGGAGTCACCTAGTGCAG,12200 fluorescence intensity (a.u.)
19,CGTCTTCTTCTTCTTTGAGCTTGCTTTGCTGCACACTCTACGGAGTCACCTAGTGCAG,9330 fluorescence intensity (a.u.)
20,CGTCATGTTATCGTCATTTTCGTGTAACGCTTCAGCGATACGGAGTCACCTAGTGCAG,9400 fluorescence intensity (a.u.)
21,CGATTTTTATTTTTCGCCGGATGGGGTTGACTTTTTTTTACGGAGTCACCTAGTGCAG,20900 fluorescence intensity (a.u.)

row,Sequence,binding signal
1,CAAATTTATGGTTGTAACGGTGTTGAATGAACGGTAGGCTCGGAGTCACCTAGTGCAG,9890 fluorescence intensity (a.u.)
2,GAGGAGGTGGGTTGGCCACGAGCGATAGAGGCCCACATGTCGGAGTCACCTAGTGCAG,8290 fluorescence intensity (a.u.)
3,CCACTGACCGGTGGGCCCCACAAAACCGCCCGCTGCACTCCGGAGTCACCTAGTGCAG,9390 fluorescence intensity (a.u.)
4,ATCCCAGTATCGCACCAGCACAATCAGTATCACTCTCACTCGGAGTCACCTAGTGCAG,8450 fluorescence intensity (a.u.)
5,GACCGCGTCACTGATTGGCCTGCCTCTCCTCGCACCGGGGCGGAGTCACCTAGTGCAG,9150 fluorescence intensity (a.u.)
6,TTATGGAATGGGTTTTGTCTTTAGTCTATGTTTAATACTTCGGAGTCACCTAGTGCAG,9100 fluorescence intensity (a.u.)
7,GTGTCTTAAGACGTTAGGCCGCCTCTGGTTAATTCTGTAACGGAGTCACCTAGTGCAG,8090 fluorescence intensity (a.u.)
8,GCGCCGTTTATCTTTTTTTTTTCCGCTGCTTAGATCTTTACGGAGTCACCTAGTGCAG,12200 fluorescence intensity (a.u.)
9,TATAGATTTTCGTCTCCAACGCTTGACCGTCCGTTTTATTCGGAGTCACCTAGTGCAG,12800 fluorescence intensity (a.u.)
10,AGCACCTGCATGAAAATAAGCCATTGACCATTTTCAGGGGCGGAGTCACCTAGTGCAG,8220 fluorescence intensity (a.u.)
11,CGTTCGTCTTAGGCCGTGTTTAGATTTTTTTTTTTGCCAACGGAGTCACCTAGTGCAG,8160 fluorescence intensity (a.u.)
12,ACCTTCTCGAGAACCCTAAAACCACTCTAATTACACTGTCCGGAGTCACCTAGTGCAG,8560 fluorescence intensity (a.u.)
13,TTTTACGTCCATATCCATACCCTTGGTTTGAACTTTTTTTCGGAGTCACCTAGTGCAG,8570 fluorescence intensity (a.u.)
14,CACCCGCATCCATCCACACCACCCGCACGCGCAGCCGCACCGGAGTCACCTAGTGCAG,9670 fluorescence intensity (a.u.)
15,CCACACAGCCTCTGGTCCCCAGCTGTCAGCCCGCCGCGCCCGGAGTCACCTAGTGCAG,8930 fluorescence intensity (a.u.)
16,ATCCCACGTGTACGCTTAGCAAATTCACAAATCCCAACCTCGGAGTCACCTAGTGCAG,8850 fluorescence intensity (a.u.)
17,ACCCTATATGCCACATTTCCACTTGTTCTATTTGAAAGTGCGGAGTCACCTAGTGCAG,10400 fluorescence intensity (a.u.)
18,CAAAAACACTCCACATATTTTTCCTTTTAGTTACGTAATTCGGAGTCACCTAGTGCAG,9500 fluorescence intensity (a.u.)
19,TGCTTGTGTGCTTTGTTTGTCGCGTAGATTTCGGCCGTTTCGGAGTCACCTAGTGCAG,9940 fluorescence intensity (a.u.)
20,AGTAGAATTTGGCAGGATGTTGGTTCTTTTGTAGCCCAAACGGAGTCACCTAGTGCAG,9800 fluorescence intensity (a.u.)
21,TTCTCTCTGTCTCGCTCCTTCGTTCGCTCGCTTTATCCCCCGGAGTCACCTAGTGCAG,12000 fluorescence intensity (a.u.)
